# Assay results

Source: PubChem BioAssay AID1159506 (NCATS, 2015).

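Genome-wide siRNA knockdown in TC32 Ewing sarcoma cells, comparing luciferase light from an NR0B1-promoter reporter with a CMV-promoter reporter 48 hours after transfection.
Each siRNA was applied at 20 nM.
A z-score of the log NR0B1-over-CMV signal, less the median of siRNAs with the same seed; more negative means a stronger specific loss of the NR0B1 reporter.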

The strongest results of the screen are mostly left out here.
Sequences are the guide (antisense) strand, without overhang.

{"sequence": "UACAAGUUAACCGUCCUCC", "target gene": "IGFBP1", "seed-corrected z-score": "0.3703"}
{"sequence": "UACGAUUUAGUUCAGCUAC", "target gene": "CEP162", "seed-corrected z-score": "0.4327"}
{"sequence": "UUAUCAGCAACAUCCACCC", "target gene": "ANKDD1B", "seed-corrected z-score": "-0.9145"}
{"sequence": "UCAAGUUUUACGUUGAUGC", "target gene": "LINC00938", "seed-corrected z-score": "-0.414"}
{"sequence": "UGUCCUCUCAUUUUGAUCA", "target gene": "USP8P1", "seed-corrected z-score": "0.004845"}
{"sequence": "AUUCCAAUCACGUAGUCGC", "target gene": "KCNK17", "seed-corrected z-score": "-0.2303"}
{"sequence": "UGUACUCUUCCAUUGAUCC", "target gene": "OR2T1", "seed-corrected z-score": "0.004783"}
{"sequence": "UUCUCAACGACUCUAGACG", "target gene": "NDC80", "seed-corrected z-score": "-1.597"}
{"sequence": "AAAUCUUUACACGAGAGGG", "target gene": "ASB9P1", "seed-corrected z-score": "-0.191"}
{"sequence": "UGAAUACCAAUGCUCAAGC", "target gene": "LIPG", "seed-corrected z-score": "0.2006"}
{"sequence": "UAGGUCUUGAAGAACUCGC", "target gene": "OPA3", "seed-corrected z-score": "0.6069"}
{"sequence": "UCGGUGAAGACAUAGUAGU", "target gene": "ABO", "seed-corrected z-score": "-0.5217"}
{"sequence": "AUACGUACAGCUAUCAAUC", "target gene": "CBL", "seed-corrected z-score": "1.419"}
{"sequence": "UUUACCAAAACCUUCAUCC", "target gene": "ZNF165", "seed-corrected z-score": "-0.06312"}
{"sequence": "UCUUUGUCAGCCUUUAGUU", "target gene": "NPM1P39", "seed-corrected z-score": "-0.05766"}
{"sequence": "UUCCGUAUGCUGAUGAUCC", "target gene": "IFT122", "seed-corrected z-score": "0.6911"}
{"sequence": "UAUCGGUAGACCACAUUGU", "target gene": "SLCO3A1", "seed-corrected z-score": "0.2334"}
{"sequence": "UCUCGUUCAUCAACUCACU", "target gene": "SUSD2P1", "seed-corrected z-score": "-0.6809"}
{"sequence": "UUUGGUUCCAGUAAGUUGG", "target gene": "C7orf49", "seed-corrected z-score": "0.158"}
{"sequence": "AAAGGUUAUGAGUAGAGGC", "target gene": "KRTAP13-1", "seed-corrected z-score": "0.06129"}
{"sequence": "AUCGGUCACAUAUAGAGCC", "target gene": "MEGF9", "seed-corrected z-score": "0.1253"}
{"sequence": "UUCUUGUGAAUUGCAGUCC", "target gene": "LINC00520", "seed-corrected z-score": "1.857"}
{"sequence": "UACUAGGCAAUUGAGAACC", "target gene": "KRTAP27-1", "seed-corrected z-score": "-0.1723"}
{"sequence": "UCAUAAACUGCAUCGAUAC", "target gene": "MMP16", "seed-corrected z-score": "-0.2798"}
{"sequence": "UAUGCAUCAGUGGGAUUCU", "target gene": "MYL12B", "seed-corrected z-score": "-0.05386"}
{"sequence": "UACGGUUGAAGUCCUGCUU", "target gene": "RAPGEF3", "seed-corrected z-score": "0.05258"}
{"sequence": "AUGGUGAUAGUAUAGGCCC", "target gene": "ITIH6", "seed-corrected z-score": "0.02586"}
{"sequence": "UUCCAUAUGAGCAAGCCGC", "target gene": "HDHD3", "seed-corrected z-score": "1.682"}
{"sequence": "UAUACGUUUCACGGCAUGC", "target gene": "NUF2", "seed-corrected z-score": "-1.258"}
{"sequence": "UUCUCGUAUAAAAUUCAGC", "target gene": "MEIOB", "seed-corrected z-score": "-0.1528"}
{"sequence": "UUUCAUAGAAUUCUCCGUC", "target gene": "FSTL5", "seed-corrected z-score": "-0.5694"}
{"sequence": "UGACGGAUAGCAUAAAUCU", "target gene": "RPS16", "seed-corrected z-score": "1.316"}
{"sequence": "UUUGAUCCCAUCGAGGUUC", "target gene": "SFXN1", "seed-corrected z-score": "-0.9703"}
{"sequence": "AAGGCUCUUGUGCUGCUCC", "target gene": "GOLGA8J", "seed-corrected z-score": "-1.147"}
{"sequence": "UAGAAGCUGCUAAAGGUUG", "target gene": "LINC01061", "seed-corrected z-score": "0.4473"}
{"sequence": "UUAUUAAGUUGCUUGAUUG", "target gene": "A1CF", "seed-corrected z-score": "1.484"}
{"sequence": "UUACUACAAAGACUCGUUC", "target gene": "PRKD3", "seed-corrected z-score": "-1.216"}
{"sequence": "UUGACUACAAUGUUACUUG", "target gene": "MAPK10", "seed-corrected z-score": "1.426"}
{"sequence": "UGUGAAUCAGCUCCAGUCA", "target gene": "HTN3", "seed-corrected z-score": "-0.6461"}
{"sequence": "UAUGGUACAGGCAUCACUG", "target gene": "ZCCHC16", "seed-corrected z-score": "0.7854"}
{"sequence": "UUUGGGCUGCGGGUAUUUC", "target gene": "PIEZO1", "seed-corrected z-score": "0.01153"}
{"sequence": "UAUGUGAGAUGGAUGAAUG", "target gene": "CLSTN2", "seed-corrected z-score": "-0.202"}
{"sequence": "UAUAAGUUCUGAAAUCUGG", "target gene": "BTG3", "seed-corrected z-score": "0.1927"}
{"sequence": "UUUACGUUUGCACUUGUCC", "target gene": "CR1L", "seed-corrected z-score": "0.7034"}
{"sequence": "UCAGCGUCCCUAAAUAAAG", "target gene": "LOC389906", "seed-corrected z-score": "-0.2762"}
{"sequence": "UAAGUUCCUGAAGCAACCG", "target gene": "TGFB1I1", "seed-corrected z-score": "0.2949"}
{"sequence": "UUCGGCCCUAGCAACUUUC", "target gene": "SERTAD4-AS1", "seed-corrected z-score": "-0.06031"}
{"sequence": "AUGUGGUCCAGGAUAGUCG", "target gene": "WNT3", "seed-corrected z-score": "-0.6779"}
{"sequence": "UAAACAUAACAUUCAGCUC", "target gene": "RAB6A", "seed-corrected z-score": "0.1666"}
{"sequence": "UUCUUCCACAGAGAUGUCC", "target gene": "ACTN3", "seed-corrected z-score": "-0.1475"}

Repeated from the top, 3 entries:

With UACAAGUUAACCGUCCUCC against IGFBP1 the assay gave seed-corrected z-score 0.3703.
With UACGAUUUAGUUCAGCUAC against CEP162 the assay gave seed-corrected z-score 0.4327.
With UUAUCAGCAACAUCCACCC against ANKDD1B the assay gave seed-corrected z-score -0.9145.